{"source": "PubChem BioAssay AID1508597 | Cure First, 2020", "test": "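Survival screen with siRNA in ovarian cancer cells derived from patients, with or without rucaparib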 (primary screen)", "cells": "human ovarian carcinoma lines grown from tumours: OCI-P5x (papillary serous) and OCI-C5x (clear cell)", "reagents": "siRNA pool against human genes, 1.25 pmol siRNA per well", "timing": "72 h or 96 h, depending on the cell culture", "challenge": "rucaparib 20 µM (about IC30) or vehicle, present until read-out", "read-out": "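ATP luminescence measured at 72 or 96 h according to the culture, then normalised and expressed as percent viability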", "reading the numbers": "viability, normalised: higher = more viable cells remaining", "rule for the call": "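a well counts as a hit if its normalised viability is under 80 percent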", "calls": "active = viability under 80%; inactive = viability 80% or more", "note": "This is one part, drawn at random, of about 2,100 deposited reagents. 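Calls flag viability under 80% in either arm, not effects specific to rucaparib; the reference for percent is not stated.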 Unmarked entries are inactive. Not given: the 100% reference."}
{"target": "TET2 (tet methylcytosine dioxygenase 2)", "rucaparib or vehicle": "Rucaparib", "cell line": "OCI-C5x (clear cell)", "technical replicate": "1", "viability, normalised (%)": "39.2 (active)"}
{"target": "TET2 (tet methylcytosine dioxygenase 2)", "rucaparib or vehicle": "Rucaparib", "cell line": "OCI-C5x (clear cell)", "technical replicate": "2", "viability, normalised (%)": "34.5 (active)"}
{"target": "TET2 (tet methylcytosine dioxygenase 2)", "rucaparib or vehicle": "Rucaparib", "cell line": "OCI-C5x (clear cell)", "technical replicate": "3", "viability, normalised (%)": "30.8 (active)"}
{"target": "TET2 (tet methylcytosine dioxygenase 2)", "rucaparib or vehicle": "Rucaparib", "cell line": "OCI-P5x (serous)", "technical replicate": "1", "viability, normalised (%)": "44.3 (active)"}
{"target": "TET2 (tet methylcytosine dioxygenase 2)", "rucaparib or vehicle": "Rucaparib", "cell line": "OCI-P5x (serous)", "technical replicate": "2", "viability, normalised (%)": "63.9 (active)"}
{"target": "TET2 (tet methylcytosine dioxygenase 2)", "rucaparib or vehicle": "Rucaparib", "cell line": "OCI-P5x (serous)", "technical replicate": "3", "viability, normalised (%)": "58.1 (active)"}
{"target": "TET2 (tet methylcytosine dioxygenase 2)", "rucaparib or vehicle": "Vehicle", "cell line": "OCI-C5x (clear cell)", "technical replicate": "1", "viability, normalised (%)": "42 (active)"}
{"target": "TET2 (tet methylcytosine dioxygenase 2)", "rucaparib or vehicle": "Vehicle", "cell line": "OCI-C5x (clear cell)", "technical replicate": "2", "viability, normalised (%)": "41.9 (active)"}
{"target": "TET2 (tet methylcytosine dioxygenase 2)", "rucaparib or vehicle": "Vehicle", "cell line": "OCI-C5x (clear cell)", "technical replicate": "3", "viability, normalised (%)": "46.3 (active)"}
{"target": "TET2 (tet methylcytosine dioxygenase 2)", "rucaparib or vehicle": "Vehicle", "cell line": "OCI-P5x (serous)", "technical replicate": "1", "viability, normalised (%)": "58.2 (active)"}
{"target": "TET2 (tet methylcytosine dioxygenase 2)", "rucaparib or vehicle": "Vehicle", "cell line": "OCI-P5x (serous)", "technical replicate": "2", "viability, normalised (%)": "61 (active)"}
{"target": "TET2 (tet methylcytosine dioxygenase 2)", "rucaparib or vehicle": "Vehicle", "cell line": "OCI-P5x (serous)", "technical replicate": "3", "viability, normalised (%)": 85}
{"target": "HDAC9 (histone deacetylase 9)", "rucaparib or vehicle": "Rucaparib", "cell line": "OCI-C5x (clear cell)", "technical replicate": "1", "viability, normalised (%)": "45.9 (active)"}
{"target": "HDAC9 (histone deacetylase 9)", "rucaparib or vehicle": "Rucaparib", "cell line": "OCI-C5x (clear cell)", "technical replicate": "2", "viability, normalised (%)": "33.7 (active)"}
{"target": "HDAC9 (histone deacetylase 9)", "rucaparib or vehicle": "Rucaparib", "cell line": "OCI-C5x (clear cell)", "technical replicate": "3", "viability, normalised (%)": "59 (active)"}
{"target": "HDAC9 (histone deacetylase 9)", "rucaparib or vehicle": "Rucaparib", "cell line": "OCI-P5x (serous)", "technical replicate": "1", "viability, normalised (%)": "66.7 (active)"}
{"target": "HDAC9 (histone deacetylase 9)", "rucaparib or vehicle": "Rucaparib", "cell line": "OCI-P5x (serous)", "technical replicate": "2", "viability, normalised (%)": "68.5 (active)"}
{"target": "HDAC9 (histone deacetylase 9)", "rucaparib or vehicle": "Rucaparib", "cell line": "OCI-P5x (serous)", "technical replicate": "3", "viability, normalised (%)": "63.3 (active)"}
{"target": "HDAC9 (histone deacetylase 9)", "rucaparib or vehicle": "Vehicle", "cell line": "OCI-C5x (clear cell)", "technical replicate": "1", "viability, normalised (%)": "47.5 (active)"}
{"target": "HDAC9 (histone deacetylase 9)", "rucaparib or vehicle": "Vehicle", "cell line": "OCI-C5x (clear cell)", "technical replicate": "2", "viability, normalised (%)": "43.7 (active)"}
{"target": "HDAC9 (histone deacetylase 9)", "rucaparib or vehicle": "Vehicle", "cell line": "OCI-C5x (clear cell)", "technical replicate": "3", "viability, normalised (%)": "57.6 (active)"}
{"target": "HDAC9 (histone deacetylase 9)", "rucaparib or vehicle": "Vehicle", "cell line": "OCI-P5x (serous)", "technical replicate": "1", "viability, normalised (%)": "52 (active)"}
{"target": "HDAC9 (histone deacetylase 9)", "rucaparib or vehicle": "Vehicle", "cell line": "OCI-P5x (serous)", "technical replicate": "2", "viability, normalised (%)": "67.4 (active)"}
{"target": "HDAC9 (histone deacetylase 9)", "rucaparib or vehicle": "Vehicle", "cell line": "OCI-P5x (serous)", "technical replicate": "3", "viability, normalised (%)": "52.8 (active)"}

6 entries from above, arranged by “viability, normalised (%)”, ascending.
{"target": "HDAC9 (histone deacetylase 9)", "rucaparib or vehicle": "Vehicle", "cell line": "OCI-C5x (clear cell)", "technical replicate": "2", "viability, normalised (%)": "43.7 (active)"}
{"target": "HDAC9 (histone deacetylase 9)", "rucaparib or vehicle": "Vehicle", "cell line": "OCI-C5x (clear cell)", "technical replicate": "1", "viability, normalised (%)": "47.5 (active)"}
{"target": "HDAC9 (histone deacetylase 9)", "rucaparib or vehicle": "Vehicle", "cell line": "OCI-P5x (serous)", "technical replicate": "1", "viability, normalised (%)": "52 (active)"}
{"target": "HDAC9 (histone deacetylase 9)", "rucaparib or vehicle": "Vehicle", "cell line": "OCI-C5x (clear cell)", "technical replicate": "3", "viability, normalised (%)": "57.6 (active)"}
{"target": "HDAC9 (histone deacetylase 9)", "rucaparib or vehicle": "Rucaparib", "cell line": "OCI-P5x (serous)", "technical replicate": "3", "viability, normalised (%)": "63.3 (active)"}
{"target": "HDAC9 (histone deacetylase 9)", "rucaparib or vehicle": "Vehicle", "cell line": "OCI-P5x (serous)", "technical replicate": "2", "viability, normalised (%)": "67.4 (active)"}

Continued:
{"target": "DDX52 (DExD-box helicase 52)", "rucaparib or vehicle": "Rucaparib", "cell line": "OCI-C5x (clear cell)", "technical replicate": "1", "viability, normalised (%)": "71.4 (active)"}
{"target": "DDX52 (DExD-box helicase 52)", "rucaparib or vehicle": "Rucaparib", "cell line": "OCI-C5x (clear cell)", "technical replicate": "2", "viability, normalised (%)": "60.4 (active)"}
{"target": "DDX52 (DExD-box helicase 52)", "rucaparib or vehicle": "Rucaparib", "cell line": "OCI-C5x (clear cell)", "technical replicate": "3", "viability, normalised (%)": "61 (active)"}
{"target": "DDX52 (DExD-box helicase 52)", "rucaparib or vehicle": "Rucaparib", "cell line": "OCI-P5x (serous)", "technical replicate": "1", "viability, normalised (%)": "72.3 (active)"}
{"target": "DDX52 (DExD-box helicase 52)", "rucaparib or vehicle": "Rucaparib", "cell line": "OCI-P5x (serous)", "technical replicate": "2", "viability, normalised (%)": 81.6}
{"target": "DDX52 (DExD-box helicase 52)", "rucaparib or vehicle": "Rucaparib", "cell line": "OCI-P5x (serous)", "technical replicate": "3", "viability, normalised (%)": "78.4 (active)"}
{"target": "DDX52 (DExD-box helicase 52)", "rucaparib or vehicle": "Vehicle", "cell line": "OCI-C5x (clear cell)", "technical replicate": "1", "viability, normalised (%)": "57.4 (active)"}
{"target": "DDX52 (DExD-box helicase 52)", "rucaparib or vehicle": "Vehicle", "cell line": "OCI-C5x (clear cell)", "technical replicate": "2", "viability, normalised (%)": "39.5 (active)"}
{"target": "DDX52 (DExD-box helicase 52)", "rucaparib or vehicle": "Vehicle", "cell line": "OCI-C5x (clear cell)", "technical replicate": "3", "viability, normalised (%)": "41.9 (active)"}
{"target": "DDX52 (DExD-box helicase 52)", "rucaparib or vehicle": "Vehicle", "cell line": "OCI-P5x (serous)", "technical replicate": "1", "viability, normalised (%)": "77.4 (active)"}
{"target": "DDX52 (DExD-box helicase 52)", "rucaparib or vehicle": "Vehicle", "cell line": "OCI-P5x (serous)", "technical replicate": "2", "viability, normalised (%)": "79.4 (active)"}
{"target": "DDX52 (DExD-box helicase 52)", "rucaparib or vehicle": "Vehicle", "cell line": "OCI-P5x (serous)", "technical replicate": "3", "viability, normalised (%)": 81.3}
